Experimental data from publication PMC7864067.
Results are given in words; binding and its absence hold for the method and conditions named.

Sequences of proteins named here, by UniProt entry; tags and fusion partners are left off. A change or cut given only in a name is not applied to a line headed by its entry. A line that says so, or that is headed by a name, gives the form on record, which may keep a tag or linker.
profilin 2b (recombinant) (P35080-2, form named): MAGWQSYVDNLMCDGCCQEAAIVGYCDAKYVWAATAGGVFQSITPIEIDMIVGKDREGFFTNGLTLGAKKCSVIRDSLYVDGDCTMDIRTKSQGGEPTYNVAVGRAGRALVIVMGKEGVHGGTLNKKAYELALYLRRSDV

Biological target: profilin 2b (recombinant) (UniProt P35080)
Assay: SEC-MALS + other: SAXS; SEC-MALS on Superdex 75 Increase 10/300 GL in 20 mM HEPES pH 8.5, 100 mM NaCl, 2 mM EDTA, 200–300 μg injected; batch SAXS at 1.1 to 5.7 mg/ml, 10 °C, 20 mM HEPES pH 8.0, 100 mM NaCl, 1 mM DTT; both purified

- binding: no binding
Substance: profilin 2b (recombinant) (from UniProt P35080-2 1-140)
